PubChem BioAssay AID328 (DTP/NCI, 2004)
The list is a part of this screen's results and no random one: it is rich in T/C values a quarter to a half above the control, in often repeated tests (any T/C) and in doses without a T/C. Further doses and runs are listed elsewhere. T/C is the treated group as % of the vehicle group. Some doses have a count of surviving animals in place of a T/C: the source holds a T/C of zero for them, seemingly a mark for toxic or unscored doses. Some doses without a T/C left all or most animals alive at the check, yet need not have been tolerated: survival well below the control is almost never listed, so the zero probably covers shortened survival too. Survivors were counted at the toxicity check, usually on the fifth day, unless a day is given; later deaths do not show. Schedules are NCI's codes, taken here to give the interval after Q, in days (D) or hours (H), and the number of doses after X. Some entries hold several experiments; their values stand side by side, smallest first. For survival time, the PubChem record calls one and a half times the control and up active, and a quarter to a half above the control has no call in these data; cut-offs in other NCI protocols can differ. Some T/C values carry the count of animals alive at the toxicity check (mostly the fifth day); where none is given, no animal had died by that day. Counts like (3×) give the number of equal values in this list.

System: BDF1 mice, P388 leukemia ip, median survival T/C
Experiment: NCI In Vivo Anticancer Drug Screen. Data for tumor model P388 Leukemia (intraperitoneal) in B6D2F1 (BDF1) mice
Details: T/C endpoint: median survival time, higher T/C = longer survival
Experimental: The antitumor activity of compounds was measured in mice bearing transplantable tumors. Survival or tumor size were measured and the results are expressed as the measurement made in the treated group (T) divided by the measurement made in the vehicle treated control group (C). The tumor model used in this assay is P388 Leukemia (intraperitoneal) in B6D2F1 (BDF1) mice

[1] = dose: 0.25 mg/kg/injection, schedule: Q01DX009 (ip), vehicle: water
[2] = dose: 0.25 mg/kg/injection, schedule: Q04DX003 (ip), vehicle: water
[3] = dose: 0.5 mg/kg/injection, schedule: Q01DX009 (ip), vehicle: water

`CC[C@]1(O)C[C@H]2CN(CCc3c([nH]c4ccccc34)[C@@](C(=O)OC)(c3cc4c(cc3OC)N(C=O)[C@H]3[C@@](O)(C(=O)OC)[C@H](OC(C)=O)[C@]5(CC)C=CCN6CC[C@]43[C@@H]65)C2)C1` was tested. Which T/C (dose: 0.01 mg/kg/injection, schedule: Q01DX009 (ip), vehicle: water) did it give?
Its T/C is 129 % of control.

And the T/C (dose: 0.03 mg/kg/injection, schedule: Q01DX009 (ip), vehicle: water, evaluated on day 30)?
The T/C was 133 % of control.

What about the T/C (dose: 0.03 mg/kg/injection, schedule: Q01DX009 (ip), vehicle: water, evaluated on day 32) of the same compound?
The T/C was 128 % of control.

And the T/C (dose: 0.06 mg/kg/injection, schedule: Q01DX009 (ip), vehicle: water, evaluated on day 30)?
Its T/C is 100, 171, 172, 177 % of control.

And the T/C (dose: 0.06 mg/kg/injection, schedule: Q01DX009 (ip), vehicle: water, evaluated on day 32)?
Its T/C is 103 % of control.

What about the survivor count (dose: 0.06 mg/kg/injection, schedule: Q01DX009 (ip), vehicle: water) of the same compound?
Its survivor count is 5 of 6 and 6 of 6.

What about the T/C (dose: 0.12 mg/kg/injection, schedule: Q01DX009 (ip), vehicle: water, evaluated on day 30) of the same compound?
Its T/C is 168, 177, 200, 216 % of control.

And the T/C (dose: 0.12 mg/kg/injection, schedule: Q01DX009 (ip), vehicle: water, evaluated on day 32)?
Its T/C is 195 % of control.

What about the survivor count (dose: 0.12 mg/kg/injection, schedule: Q01DX009 (ip), vehicle: water) of the same compound?
The survivor count was 2 of 6 and 3 of 6.

What about the T/C (dose: 0.12 mg/kg/injection, schedule: Q04DX003 (ip), vehicle: water) of the same compound?
The T/C was 136 % of control.

What about the T/C (dose: 0.2 mg/kg/injection, schedule: Q04DX002 (ip), vehicle: saline) of the same compound?
The T/C was 141 % of control.

And the T/C (dose: 0.25 mg/kg/injection, schedule: Q01DX001 (ip), vehicle: saline)?
The T/C was 137 % of control.

And the T/C [1]?
The T/C was 150, 161, 200, 204 % of control.

What about the survivor count [1] of the same compound?
Its survivor count is 2 of 6 and 3 of 6.

And the T/C [2]?
Its T/C is 131 % of control.

And the survivor count [2]?
Its survivor count is 6 of 6.

What about the survivor count (dose: 0.33 mg/kg/injection, schedule: Q01DX009 (ip), vehicle: clinical formulation) of the same compound?
Its survivor count is 10 of 10.

And the T/C (dose: 0.5 mg/kg/injection, schedule: Q01DX001 (ip), vehicle: saline)?
The T/C was 142 % of control.

What about the T/C (dose: 0.5 mg/kg/injection, schedule: Q01DX001 (ip), vehicle: water) of the same compound?
The T/C was 142 % of control.

And the survivor count (dose: 0.5 mg/kg/injection, schedule: Q01DX009 (ip), vehicle: clinical formulation)?
The survivor count was 10 of 10.

And the survivor count (dose: 0.5 mg/kg/injection, schedule: Q01DX009 (ip), vehicle: saline)?
Its survivor count is 6 of 6.

And the T/C [3]?
The T/C was 90 and 94 % of control.

What about the survivor count [3] of the same compound?
Its survivor count is 0 of 6, 1 of 6, 6 of 6.

And the survivor count (dose: 0.5 mg/kg/injection, schedule: Q01DX010 (ip), vehicle: saline)?
The survivor count was 6 of 6.

And the T/C (dose: 0.5 mg/kg/injection, schedule: Q04DX003 (ip), vehicle: water, evaluated on day 11)?
Its T/C is 127 % of control [6 of 7 alive].

And the T/C (dose: 0.5 mg/kg/injection, schedule: Q04DX003 (ip), vehicle: water, evaluated on day 34)?
The T/C was 136 % of control.

What about the T/C (dose: 0.67 mg/kg/injection, schedule: Q04DX003 (ip), vehicle: saline, evaluated on day 5) of the same compound?
Its T/C is 264 % of control.

And the T/C (dose: 0.67 mg/kg/injection, schedule: Q04DX003 (ip), vehicle: saline, evaluated on day 60)?
The T/C was 225, 242, 254 % of control.

What about the T/C (dose: 0.72 mg/kg/injection, schedule: Q04DX003 (ip), vehicle: saline) of the same compound?
The T/C was 143 % of control.

And the T/C (dose: 0.8 mg/kg/injection, schedule: Q04DX003 (ip), vehicle: saline, evaluated on day 5)?
The T/C was 191 and 233 % of control.

And the T/C (dose: 0.8 mg/kg/injection, schedule: Q04DX003 (ip), vehicle: saline, evaluated on day 60)?
Its T/C is 191, 200, 221, 222, 233, 261, 264 % of control.

What about the T/C (dose: 1.0 mg/kg/injection, schedule: Q01DX001 (ip), vehicle: saline) of the same compound?
The T/C was 144 % of control.

What about the survivor count (dose: 1.0 mg/kg/injection, schedule: Q01DX009 (ip), vehicle: saline) of the same compound?
The survivor count was 5 of 6.

What about the survivor count (dose: 1.0 mg/kg/injection, schedule: Q01DX009 (ip), vehicle: water) of the same compound?
The survivor count was 4 of 6 and 6 of 6.

What about the T/C (dose: 1.0 mg/kg/injection, schedule: Q04DX003 (ip), vehicle: saline, evaluated on day 5) of the same compound?
The T/C was 167, 221, 235 % of control.

And the T/C (dose: 1.0 mg/kg/injection, schedule: Q04DX003 (ip), vehicle: saline, evaluated on day 60)?
Its T/C is 221, 248, 250, 266, 279, 300 % of control.

What about the T/C (dose: 1.0 mg/kg/injection, schedule: Q04DX003 (ip), vehicle: water) of the same compound?
Its T/C is 132 % of control [4 of 6 alive].

And the T/C (dose: 1.2 mg/kg/injection, schedule: Q04DX003 (ip), vehicle: saline, evaluated on day 5)?
The T/C was 198 and 250 % of control.

And the T/C (dose: 1.2 mg/kg/injection, schedule: Q04DX003 (ip), vehicle: saline, evaluated on day 60)?
The T/C was 105, 198, 225, 250, 290, 328, 529 % of control.

What about the T/C (dose: 1.3 mg/kg/injection, schedule: Q01DX001 (ip), vehicle: saline, evaluated on day 5) of the same compound?
The T/C was 166, 171 (2×), 200 % of control.

And the T/C (dose: 1.3 mg/kg/injection, schedule: Q01DX001 (ip), vehicle: saline, evaluated on day 60)?
The T/C was 166, 171, 174, 200 % of control.

And the T/C (dose: 1.5 mg/kg/injection, schedule: Q04DX003 (ip), vehicle: saline, evaluated on day 5)?
Its T/C is 171, 227, 232 % of control.

And the T/C (dose: 1.5 mg/kg/injection, schedule: Q04DX003 (ip), vehicle: saline, evaluated on day 60)?
Its T/C is 227, 294, 505, 548 % of control.

What about the T/C (dose: 1.8 mg/kg/injection, schedule: Q04DX003 (ip), vehicle: saline, evaluated on day 5) of the same compound?
The T/C was 247 % of control.

And the T/C (dose: 1.8 mg/kg/injection, schedule: Q04DX003 (ip), vehicle: saline, evaluated on day 60)?
The T/C was 92, 118, 128, 482, 529 % of control.

And the T/C (dose: 2.0 mg/kg/injection, schedule: Q01DX001 (ip), vehicle: saline, evaluated on day 5)?
Its T/C is 141, 167, 175, 194, 206 % of control.

What about the T/C (dose: 2.0 mg/kg/injection, schedule: Q01DX001 (ip), vehicle: saline, evaluated on day 35) of the same compound?
Its T/C is 158 % of control [5 of 6 alive].

And the T/C (dose: 2.0 mg/kg/injection, schedule: Q01DX001 (ip), vehicle: saline, evaluated on day 60)?
The T/C was 171, 175, 194, 200, 206 % of control.

What about the survivor count (dose: 2.0 mg/kg/injection, schedule: Q01DX009 (ip), vehicle: saline) of the same compound?
Its survivor count is 2 of 6.

What about the survivor count (dose: 2.0 mg/kg/injection, schedule: Q01DX009 (ip), vehicle: water) of the same compound?
The survivor count was 0 of 6, 4 of 6, 5 of 6.

What about the T/C (dose: 2.0 mg/kg/injection, schedule: Q04DX003 (ip), vehicle: water) of the same compound?
The T/C was 140 % of control.

What about the T/C (dose: 3.0 mg/kg/injection, schedule: Q01DX001 (ip), vehicle: saline, evaluated on day 5) of the same compound?
Its T/C is 136, 191, 194, 221 % of control.

And the T/C (dose: 3.0 mg/kg/injection, schedule: Q01DX001 (ip), vehicle: saline, evaluated on day 60)?
Its T/C is 167, 191, 194 % of control.

And the survivor count (dose: 4.0 mg/kg/injection, schedule: Q01DX001 (ip), vehicle: water)?
The survivor count was 4 of 6.

And the survivor count (dose: 8.0 mg/kg/injection, schedule: Q01DX001 (ip), vehicle: saline)?
Its survivor count is 6 of 10.

What about the survivor count (dose: 8.0 mg/kg/injection, schedule: Q01DX001 (ip), vehicle: water) of the same compound?
The survivor count was 3 of 6.

And the T/C (dose: 125.0 micrograms/kg/injection, schedule: Q01DX001 (ip), vehicle: clinical formulation)?
Its T/C is 138 % of control.

What about the survivor count (dose: 250.0 micrograms/kg/injection, schedule: Q03HX024 (ip), vehicle: clinical formulation) of the same compound?
The survivor count was 8 of 10.

And the survivor count (dose: 500.0 micrograms/kg/injection, schedule: Q01DX009 (ip), vehicle: clinical formulation)?
Its survivor count is 10 of 10.

What about the survivor count (dose: 500.0 micrograms/kg/injection, schedule: Q03HX008 (ip), vehicle: clinical formulation) of the same compound?
Its survivor count is 5 of 10.

And the T/C (dose: 1000.0 micrograms/kg/injection, schedule: Q04DX003 (ip), vehicle: saline)?
Its T/C is 237, 248, 271, 298 % of control.

What about the T/C (dose: 2000.0 micrograms/kg/injection, schedule: Q04DX003 (ip), vehicle: saline) of the same compound?
The T/C was 94, 100 [7 of 8 alive], 117 [7 of 8 alive], 118 % of control [6 of 8 alive].

Which results are given for `C#CC1(OCC2CO2)CCCCC1` (centres undefined)?
survivor count (dose: 50.0 mg/kg/injection, schedule: Q01DX009 (ip), vehicle: saline): 6 of 6; T/C (dose: 400.0 mg/kg/injection, schedule: Q04DX003 (ip), vehicle: saline): 130 % of control
